Measured data: PubChem BioAssay AID1224830 (NIAID, 2016)
The whole screen tested about 18,000 reagents; below is an unselected part. About 2,900 of them (16%) count as active. 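Calls are made per well; low scores hint the gene aids the LPS response, high scores that it dampens it.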 Repeated entries: four replicate wells of each siRNA pool.

- Test: 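Regulators of TLR4 signalling towards TNF-alpha in macrophage-like cells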 (primary screen)
- Cells: human THP-1 monocytic leukaemia cells, TNF dual-luciferase reporter clone, PMA-differentiated to macrophage-like cells
- Knock-down reagent: siRNA pool against human genes, 50 nM
- Timing: LPS for 4 h, given about 3 days after siRNA transfection
- Treatment: bacterial LPS (TLR4 ligand), 10 ng/ml
- Measurement: 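TNF firefly reporter luminescence divided by renilla, normalised to the plate median, then turned into a robust z-score for each replicate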
- Scale: TNF reporter robust z-score: higher = stronger TNF reporter response to LPS
- Hit rule: 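Each well counts as active if its z-score is over 2.8 or under -1.5; controls are left without a call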

For LRRC10, the values are TNF reporter robust z-score -0.06; inactive.
With knock-down of LRRC10, the screen gave TNF reporter robust z-score 0.42; inactive.
For LRRC10, the entry reads TNF reporter robust z-score 0.43; inactive.
Knock-down of LRRC10 resulted in: TNF reporter robust z-score 0.05; inactive.
With knock-down of SHOC2, the record shows TNF reporter robust z-score 2.09; inactive.
SHOC2 gave TNF reporter robust z-score 1.37; inactive.
With knock-down of SHOC2, the screen gave TNF reporter robust z-score 0.74; inactive.
Depletion of SHOC2 resulted in: TNF reporter robust z-score 1.64; inactive.
Silencing of ADCY3 came out at: TNF reporter robust z-score 2.58; inactive.
ADCY3 gave TNF reporter robust z-score 0.37; inactive.
ADCY3 gave TNF reporter robust z-score 1.65; inactive.
ADCY3 scored TNF reporter robust z-score 1.31; inactive.
Silencing of PRICKLE4 resulted in: TNF reporter robust z-score 0.89; inactive.
PRICKLE4 gave TNF reporter robust z-score 1.13; inactive.
Knock-down of PRICKLE4 gave: TNF reporter robust z-score -0.25; inactive.
Silencing of PRICKLE4 resulted in: TNF reporter robust z-score -0.07; inactive.
Knock-down of TRIM14 resulted in: TNF reporter robust z-score 0.39; inactive.
With knock-down of TRIM14, the record shows TNF reporter robust z-score 1.43; inactive.
TRIM14 showed TNF reporter robust z-score -0.66; inactive.
Knock-down of TRIM14 came out at: TNF reporter robust z-score -0.74; inactive.
For ALKAL2 the deposit lists TNF reporter robust z-score 0.46; inactive.
Depletion of ALKAL2 resulted in: TNF reporter robust z-score -0.42; inactive.
ALKAL2 scored TNF reporter robust z-score -0.38; inactive.
Knock-down of ALKAL2 came out at: TNF reporter robust z-score 0.57; inactive.
Depletion of SEMA4F came out at: TNF reporter robust z-score -0.7; inactive.
Against SEMA4F, the values are TNF reporter robust z-score -1.03; inactive.
SEMA4F showed TNF reporter robust z-score 0.24; inactive.
SEMA4F showed TNF reporter robust z-score -0.64; inactive.
After knock-down of AFDN, the record shows TNF reporter robust z-score -0.34; inactive.
Against AFDN the deposit lists TNF reporter robust z-score -0.74; inactive.
AFDN gave TNF reporter robust z-score -0.67; inactive.
Silencing of AFDN gave: TNF reporter robust z-score 0.24; inactive.

Ordered by “TNF reporter robust z-score” (descending): some entries from above.
ADCY3 → TNF reporter robust z-score: 2.58; call: inactive
ADCY3 → TNF reporter robust z-score: 1.65; call: inactive
ADCY3 → TNF reporter robust z-score: 1.31; call: inactive
PRICKLE4 → TNF reporter robust z-score: 1.13; call: inactive
PRICKLE4 → TNF reporter robust z-score: 0.89; call: inactive
ADCY3 → TNF reporter robust z-score: 0.37; call: inactive
PRICKLE4 → TNF reporter robust z-score: -0.25; call: inactive

The list goes on.
Against SMIM8, the entry reads TNF reporter robust z-score 0.77; inactive.
For SMIM8, the entry reads TNF reporter robust z-score 1.5; inactive.
SMIM8 gave TNF reporter robust z-score -0.95; inactive.
For SMIM8 the deposit lists TNF reporter robust z-score 0.06; inactive.
Silencing of PLK1 gave: TNF reporter robust z-score -0.4; inactive.
Against PLK1 the deposit lists TNF reporter robust z-score -0.68; inactive.
PLK1 gave TNF reporter robust z-score -1.31; inactive.
Depletion of PLK1 came out at: TNF reporter robust z-score -1.43; inactive.
Against GBA2 the deposit lists TNF reporter robust z-score -0.43; inactive.
GBA2 scored TNF reporter robust z-score 0.71; inactive.
Against GBA2, the values are TNF reporter robust z-score -0.33; inactive.
Knock-down of GBA2 came out at: TNF reporter robust z-score -0.39; inactive.
ARMC3 gave TNF reporter robust z-score 1.27; inactive.
ARMC3 showed TNF reporter robust z-score 0.92; inactive.
Depletion of ARMC3 gave: TNF reporter robust z-score 0.62; inactive.
After knock-down of ARMC3 the results were TNF reporter robust z-score 0.97; inactive.
